Laboratory results reported in publication doi:10.1101/2023.10.26.564161.
These are yes or no findings as the source states them, for the method shown. Binding seen in cells or lysates may run through a third protein. Some entries that bind do so weakly or less than the wild type. Where a sequence is shown, tags or fusion partners need not be part of it.

T1: Fatty Acid Export Protein1 fused to nYFP (FAX1:YFP^C-n) (Arabidopsis thaliana) (UniProt Q93V66)
T1 sequence: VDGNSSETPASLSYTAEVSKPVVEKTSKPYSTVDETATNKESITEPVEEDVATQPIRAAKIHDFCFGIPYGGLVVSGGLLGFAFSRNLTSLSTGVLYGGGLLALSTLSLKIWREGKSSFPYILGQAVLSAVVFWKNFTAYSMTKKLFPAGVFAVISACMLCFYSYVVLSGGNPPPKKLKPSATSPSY

T2: Rhomboid-like protease11 fused to cYFP (RBL11:YFP^C-c) (Arabidopsis thaliana) (UniProt Q84MB5)
T2 sequence: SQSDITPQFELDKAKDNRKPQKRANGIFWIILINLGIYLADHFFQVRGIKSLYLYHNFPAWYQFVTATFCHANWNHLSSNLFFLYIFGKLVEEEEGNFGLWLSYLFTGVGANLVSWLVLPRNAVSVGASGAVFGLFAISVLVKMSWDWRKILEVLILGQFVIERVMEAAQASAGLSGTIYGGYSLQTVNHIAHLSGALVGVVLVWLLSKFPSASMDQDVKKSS


Tests used:
[1] = target: T1, Fatty Acid Export Protein1 fused to nYFP (FAX1:YFP^C-n) (Arabidopsis thaliana); test: split reporter
[2] = target: T2, Rhomboid-like protease11 fused to cYFP (RBL11:YFP^C-c) (Arabidopsis thaliana); test: split reporter

binding [1]	binding [2]	Binder
no binding	–	FtsH11 protease fused to cYFP (FTSH11:YFP^C-c) (enzyme, UniProt Q9FGM0 64-806) QDNVASDSDFIPKDSAFEVTDSAESNRLVSDTEVSELETNDRFVGGEETKSGGEEAEVSNGVTEGKEEDQKKSKFRIVVLMMALWAAIKRAIEKVMEWEWLSWWPFSRQEKRLEKLIAEADANPKDAALQGALLAELNKHIPEAVVQRFEQREHTVDSRGVAEYIRALVITNAISEYLPDEQTGKPSSLPALLQELKHRASGNMDESFVNPGISEKQPLHVTMVNPKVSNKSRFAQELVSTILFTVAVGLVWIMGAAALQKYIGSLGGIGTSGVGSSSSYSPKELNKEITPEKNVKTFKDVKGCDDAKQELEEVVEYLKNPSKFTRLGGKLPKGILLTGAPGTGKTLLAKAIAGEAGVPFFYRAGSEFEEMFVGVGARRVRSLFQAAKKKAPCIIFIDEIDAVGSTRKQWEGHTKKTLHQLLVEMDGFEQNEGIIVMAATNLPDILDPALTRPGRFDRHIVVPSPDVRGREEILELYLQGKPMSEDVDVKAIARGTPGFNGADLANLVNIAAIKAAVEGAEKLSSEQLEFAKDRIVMGTERKTMFVSEDSKKLTAYHESGHAIVALNTKGAHPIHKATIMPRGSALGMVTQLPSNDETSVSKRQLLARLDVCMGGRVAEELIFGLDHITTGASSDLSQATELAQYMVSSCGMSEAIGPVHIKERPSSDMQSRIDAEVVKLLREAYERVKSLLKRHEKQLHTLANALLEYETLTAEDIKRILLPKQEGEKFEEQQQEEGDLVLA
–	no binding	FtsH11 protease fused to nYFP (FTSH11:YFP^C-n) (enzyme, UniProt Q9FGM0 64-806) QDNVASDSDFIPKDSAFEVTDSAESNRLVSDTEVSELETNDRFVGGEETKSGGEEAEVSNGVTEGKEEDQKKSKFRIVVLMMALWAAIKRAIEKVMEWEWLSWWPFSRQEKRLEKLIAEADANPKDAALQGALLAELNKHIPEAVVQRFEQREHTVDSRGVAEYIRALVITNAISEYLPDEQTGKPSSLPALLQELKHRASGNMDESFVNPGISEKQPLHVTMVNPKVSNKSRFAQELVSTILFTVAVGLVWIMGAAALQKYIGSLGGIGTSGVGSSSSYSPKELNKEITPEKNVKTFKDVKGCDDAKQELEEVVEYLKNPSKFTRLGGKLPKGILLTGAPGTGKTLLAKAIAGEAGVPFFYRAGSEFEEMFVGVGARRVRSLFQAAKKKAPCIIFIDEIDAVGSTRKQWEGHTKKTLHQLLVEMDGFEQNEGIIVMAATNLPDILDPALTRPGRFDRHIVVPSPDVRGREEILELYLQGKPMSEDVDVKAIARGTPGFNGADLANLVNIAAIKAAVEGAEKLSSEQLEFAKDRIVMGTERKTMFVSEDSKKLTAYHESGHAIVALNTKGAHPIHKATIMPRGSALGMVTQLPSNDETSVSKRQLLARLDVCMGGRVAEELIFGLDHITTGASSDLSQATELAQYMVSSCGMSEAIGPVHIKERPSSDMQSRIDAEVVKLLREAYERVKSLLKRHEKQLHTLANALLEYETLTAEDIKRILLPKQEGEKFEEQQQEEGDLVLA
binds	–	Rhomboid-like protease11 fused to cYFP (RBL11:YFP^C-c) (enzyme, UniProt Q84MB5 58-280) SQSDITPQFELDKAKDNRKPQKRANGIFWIILINLGIYLADHFFQVRGIKSLYLYHNFPAWYQFVTATFCHANWNHLSSNLFFLYIFGKLVEEEEGNFGLWLSYLFTGVGANLVSWLVLPRNAVSVGASGAVFGLFAISVLVKMSWDWRKILEVLILGQFVIERVMEAAQASAGLSGTIYGGYSLQTVNHIAHLSGALVGVVLVWLLSKFPSASMDQDVKKSS
